According to patent publication US20240279309A1:
These are yes or no findings as the source states them, for the method shown. Some binding calls cover weakened binding; strength is not graded here.

The chains behind the UniProt entries cited, without tags or fusion partners. Where a name states a change or a piece, a line headed by the entry shows the natural chain unless it says otherwise.
UniProt P25942: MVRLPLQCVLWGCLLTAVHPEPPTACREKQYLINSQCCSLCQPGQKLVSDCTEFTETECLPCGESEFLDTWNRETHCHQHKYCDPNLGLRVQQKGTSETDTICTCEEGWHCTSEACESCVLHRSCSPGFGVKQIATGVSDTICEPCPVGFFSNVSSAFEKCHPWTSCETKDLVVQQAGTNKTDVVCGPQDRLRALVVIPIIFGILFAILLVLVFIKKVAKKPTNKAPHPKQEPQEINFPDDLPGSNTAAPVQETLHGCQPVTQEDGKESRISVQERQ

Columns and labels:
[1] = molecular target: biotinylated human CD40 (recombinant human CD40 target) (human) (UniProt P25942); assay: crude extract HTRF on recombinant human CD40
[2] = molecular target: biotinylated human CD40 (recombinant human CD40 target) (human) (UniProt P25942); assay: crude extract HTRF, 1.25 nM biotinylated human CD40
[3] = molecular target: human tumor necrosis factor receptor superfamily member 5 (hCD40), recombinant, expressed in Hi5 cells (human) (UniProt P25942); assay: X-ray crystallography of the complex, 2.29 A
[4] = molecular target: human tumor necrosis factor receptor superfamily member 5 (hCD40), recombinant, expressed in Hi5 cells (human) (UniProt P25942); assay: X-ray crystallography of the complex (figure legend)

Binder	binding [1]	binding [2]	binding [3]	binding [4]
ankyrin repeat domain of SEQ ID NO: 22 (designed binder) MRGSHHHHHHGSDLGKKLLQAARAGQLDEVRELLKAGADVNAKDEFGQTPLHIAAKSGHLEIVEVLLKAGADVNAKDVYGRTPLHLAAQYGHLEIVEVLLKAGADVNAKDTQGVTPLHVAAFKGHLEIVEVLLKAGADVNAQDKSGKTPADLAARAGHQDIAEVLQKAA	binds	binds	–	–
ankyrin repeat domain of SEQ ID NO: 23 (designed binder) MRGSHHHHHHGSDLGKKLLQAVRAGQLDEVRELLKAGADVNAKDTWGFTPLHIAAESGHLEIVEVLLKAGADVNAKDVQGRTPLHIAAHSGHLEIVEVLLKAGADVNAKDFRGWTPLHLAAWSGHLEIVEVLLKAGADVNAQDKSGKTPADLAARAGHQDIAEVLQKAA	binds	binds	–	–
ankyrin repeat domain of SEQ ID NO: 24 (designed binder) MRGSHHHHHHGSDLGKKLLQAARAGQLDEVRELLKAGADVNAKDTWGFTPLHIAAESGHLEIVEVLLKAGADVNAKDVQGRTPLHIAAHSGHLEIVEVLLKAGADVNAKDFRGWTPLHLAAWSGHLEIVGVLLKAGADVNAQDKSGKTPADLAARAGHQDIAEVLQKAA	binds	binds	–	–
ankyrin repeat domain of SEQ ID NO: 25 (designed binder) MRGSHHHHHHGSDLGKKLLQATRAGQLDEVRELLKAGADVNAKDEFGRTPLHLAAQYGHLEIVEVLLKAGADVNAKDAHGVTPLHVAAFRGHLEIVEVLLKAGADVNAKDRSGLTPLHLAAWQGHLEIVEVLLKAGADVNAQDKSGKTPADLAARAGHQDIAEVLQKAA	binds	binds	–	–
ankyrin repeat domain of SEQ ID NO: 26 (designed binder) MRGSHHHHHHGSDLGKKLLQAARAGQLDEVRELLKAGADVNAKDTYGRTPLHIAAQYGHLEIVEVLLKAGADVNAKDHRGVTPLHVAAYKGHLEIVEVLLKAGADVNAKDVTGVTPLHVAAFKGHLEIVEVLLKAGADVNAQDKSGKTPADLTARAGHQDIAEVLQKAA	binds	binds	–	–
ankyrin repeat domain of SEQ ID NO: 27 (designed binder) MRGSHHHHHHGSDLGYKLLWAAYAGQDDEVRILLVAGADVNAKDSYGRTPLHYAANAGHLEIVEVLLKAGADVNAKDIQGETPLHHAARKGHLEIVEVLLKAGADVNAQDKTGDTPADLAAFVGHEDIAEVLQKAA	binds	binds	–	–
ankyrin repeat domain of SEQ ID NO: 28 (designed binder) MRGSHHHHHHGSALGKKLLQAARAGQLDEVRELLKAGADVNAKDQEGRTPLHLAARSGHLEIVEVLLKAGADVNAKDTFGITPLHLAALPRSPEIVEVLLKAGADVNAKDQFGRTPLHIAAQSGHLEIVEVLLKAGADVNAQDKSGKTPADLAARAGHQDIAEVLQKAA	binds	binds	–	–
DARPin® protein #29 (SEQ ID NO: 29) (designed binder) MRGSHHHHHHGSDLGKKLLQAARAGQLDEVRELLKAGADVNAKDTWGFTPLHIAAESGHLEIVEVLLKAGADVNAKDVQGRTPLHIAAHSGHLEIVEVLLKAGADVNAKDFRGWTPLHLAAWSGHLEIVEILLKAGADVNAQDKSGKTPADLAARAGHQDIAEVLQKAA	binds	binds	binds	binds
ankyrin repeat domain of SEQ ID NO: 30 (designed binder) MRGSHHHHHHGSDLGHKLLYAAYTGQDDEVRILLAAGADVNAKDSVGYTPLHYAAHAGHLEIVEVLLKAGADVNAKDVFGRTPLHSAALHGHLEIVEVLLKAGADVNAQDTRGRTPADLAAILGHEDIAEVLQKAA	binds	binds	–	–
ankyrin repeat domain of SEQ ID NO: 31 (designed binder) MRGSHHHHHHGSDLGKKLLWAAAAGQLDEVRELLKAGADVNAKDHVGYTPLHIAALAGHLEIVEVLLKAGEDVNAKDHKGRTPLHVAAAVGHLEIVEVLLKAGADVNAKDQQGVTPLHIAAITGHLEIVEVLLKAGADVNAQDKSGKTPADLAARAGHQDIAEVLQKAA	binds	binds	–	–
ankyrin repeat domain of SEQ ID NO: 32 (designed binder) MRGSHHHHHHGSDLGKKLLQAARAGQLDEVRELLKAGADVNAKDTWGFTPLHIAAESGHLEIVEVLLKAGADVNAKDVQGRTPLHIAAHSGHLEIVEVLLKVGADVNAKDFRGWTPLHLAAWSGHLEIVEVLLKAGADVNAQDKSGKTPADLAARAGHQDIAEVLQKAA	binds	binds	–	–
ankyrin repeat domain of SEQ ID NO: 33 (designed binder) MRGSHHHHHHGSDLGKKLLQAARAGQLDEVRELLKAGADVNAKDTYGRTPLHIAAQYGHLEIVEVLLKAGADVNAKDHRGVTPLHVAAYKGHLEIVEVLLKAGADVNAKDVTGVTPLHVAAFKGHLEIVEVLLKAGADVNAQDKSGKTPADLAARAGHQDIAEVLQKAA	binds	binds	–	–
ankyrin repeat domain of SEQ ID NO: 34 (designed binder) MRGSHHHHHHGSDLGKKLLQAARAGQLDEVRELLKAGADVNAKDEWGRTPLHLAAQYGHLEIVEVLLKAGADVNAKDHRGVTPLHVAAYKGHLEIVEVLLKAGADVNAKDVTGVTPLHVAAFKGHLEIVEVLLKAGADVNAQDKSGKTPADLAARAGHQDIAEVLQKAA	binds	binds	–	–
ankyrin repeat domain of SEQ ID NO: 35 (designed binder) MRGSHHHHHHGSDLGKKLLQAARAGQLDEVRELLKAGADVNAKDTWGFTPLHIATESGHLEIVEVLLKAGADVNAKDVQGRTPLHIAAHSGHLEIVEVLLKAGADVNAKDFRGWTPLHLAAWSGHLEIVEVLLKAGADVNAQDKSGKTPADLAARAGHQDIAEVLQKAA	binds	binds	–	–
ankyrin repeat domain of SEQ ID NO: 16 (designed binder) MRGSHHHHHHGSDLGFKLLAAAFEGQDDEVRILLAAGADVNAKDKVGYTPLHYAAHAGHLEIVEVLLKAGADVNAKDVFGRTPLHSAALHGHLEIVEVLLKAGADVNAQDTRGRTPADLAAILGHEDIAEVLQKAA	binds	binds	–	–
ankyrin repeat domain of SEQ ID NO: 17 (designed binder) MRGSHHHHHHGSDLGKKLLQAARAGQLDEVRELLKAGADVNAKDSEGSTPLHLAALKGHLEIVEVLLKAGADVNAKDWQGQTPLHLAAFEGHLEIVEVLLKAGADVNAKDRWGETPLHIAAKHGHLEIVEVLLKAGADVNAQDKSGKTPADLAARAGHRDIAEVLQKAA	binds	binds	–	–
ankyrin repeat domain of SEQ ID NO: 18 (designed binder) MRGSHHHHHHGSDLGKKLLQAARAGQLDEVRILLATGADVNAKDEIGYTPLHWAAYEGHLEIVEVLLKAGADVNAKDEHGRTPLHLAAYKGHLEIVEVLLKAGADVNAKDSWGRTPLHIAARAGHLEIVEVLLKSGADVNAQDKSGKTPADLAARAGHQDIAEVLQKAA	binds	binds	–	–
ankyrin repeat domain of SEQ ID NO: 19 (designed binder) MRGSHHHHHHGSDLGKKLLQAARAGQLDEVRELLKAGADVNAKDTIGWTPLHLAAYRGHLEIVEVLLKAGADVNAKDEHGRTPLHLAAHAGHLEIVEVLLKAGADVNAKDAWGHTPLHIAARTGHLEIVEVLLKAGADVNAQDKSGKTPADLAARAGHQDIAEVLQKAA	binds	binds	–	–
ankyrin repeat domain of SEQ ID NO: 20 (designed binder) MRGSHHHHHHGSDLGKKLLQAARVGQLDEVRELLKAGADVNAKDQLGWTPLHLAAYEGHLEIVEVLLKAGADVNAKDEKGRTPLHLAAYKGHLEIVEVLLKAGADVNAKDSWGRTPLHIAARAGHLEIVEVLLKSGADVNAQDKSGKTPADLAARAGHQDIAEVLQKAA	binds	binds	–	–
ankyrin repeat domain of SEQ ID NO: 21 (designed binder) MRGSHHHHHHGSDLGKKLLQAARAGQLDEVRELLKAGADVNAKDVWGWTPLHLAAFEGHLEIVEVLLKAGADVNAKDHHGRTPLHLAAQYGHLEIVEVLLKAGADVNAKDRYGQTPLHVAAEHGHLEIVEVLLKAGADVNAQDKSGKTPADLAARAGHQDIAEVLQKAA	binds	binds	–	–
